Publication PMC11318672
These are yes or no findings as the source states them, for the method shown. Binding seen in cells or lysates may run through a third protein. Some binding calls cover weakened binding; strength is not graded here.

Amino acid sequences for entries named in this document (tags omitted).
UniProt Q00765: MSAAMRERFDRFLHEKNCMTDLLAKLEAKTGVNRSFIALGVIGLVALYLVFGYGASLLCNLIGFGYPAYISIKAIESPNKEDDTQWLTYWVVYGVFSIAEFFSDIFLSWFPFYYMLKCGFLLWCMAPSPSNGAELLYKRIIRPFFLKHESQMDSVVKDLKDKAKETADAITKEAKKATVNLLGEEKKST

How the values were obtained:
[1] = biological target: T1, endogenous MFN2 (human (endogenous in HEK293T)) (UniProt O95140); experiment: co-IP; endogenous MFN2 with REEP5 from HEK293T cells expressing mEmerald tagged REEP5 CT as competitor
T1 sequence: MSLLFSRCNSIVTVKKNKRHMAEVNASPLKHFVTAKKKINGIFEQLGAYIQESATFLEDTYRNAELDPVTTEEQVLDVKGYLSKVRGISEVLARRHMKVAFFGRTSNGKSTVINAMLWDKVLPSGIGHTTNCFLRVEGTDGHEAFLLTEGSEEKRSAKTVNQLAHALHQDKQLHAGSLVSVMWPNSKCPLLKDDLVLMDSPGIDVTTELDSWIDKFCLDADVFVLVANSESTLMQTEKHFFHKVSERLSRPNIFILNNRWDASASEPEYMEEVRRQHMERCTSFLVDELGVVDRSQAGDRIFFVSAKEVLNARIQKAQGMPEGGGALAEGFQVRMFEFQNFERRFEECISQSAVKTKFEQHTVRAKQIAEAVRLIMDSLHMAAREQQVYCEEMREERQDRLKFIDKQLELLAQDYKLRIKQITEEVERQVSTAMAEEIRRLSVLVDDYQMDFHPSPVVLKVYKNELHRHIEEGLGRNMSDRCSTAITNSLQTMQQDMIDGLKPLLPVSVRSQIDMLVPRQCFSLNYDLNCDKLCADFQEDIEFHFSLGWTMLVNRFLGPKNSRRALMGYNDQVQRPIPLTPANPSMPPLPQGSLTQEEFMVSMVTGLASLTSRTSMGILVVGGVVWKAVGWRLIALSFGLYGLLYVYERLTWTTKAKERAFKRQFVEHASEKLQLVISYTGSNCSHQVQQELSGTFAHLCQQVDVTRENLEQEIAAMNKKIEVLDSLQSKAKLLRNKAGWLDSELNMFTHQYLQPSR

[2] = biological target: T2, endogenous MFN1 (human (endogenous in HEK293T)) (UniProt Q8IWA4); experiment: co-IP; endogenous proteins in HEK293T lysate; rabbit anti-MFN1, anti-MFN2 or IgG at 4°C overnight, then Protein A/G beads 4 h; immunoblot
T2 sequence: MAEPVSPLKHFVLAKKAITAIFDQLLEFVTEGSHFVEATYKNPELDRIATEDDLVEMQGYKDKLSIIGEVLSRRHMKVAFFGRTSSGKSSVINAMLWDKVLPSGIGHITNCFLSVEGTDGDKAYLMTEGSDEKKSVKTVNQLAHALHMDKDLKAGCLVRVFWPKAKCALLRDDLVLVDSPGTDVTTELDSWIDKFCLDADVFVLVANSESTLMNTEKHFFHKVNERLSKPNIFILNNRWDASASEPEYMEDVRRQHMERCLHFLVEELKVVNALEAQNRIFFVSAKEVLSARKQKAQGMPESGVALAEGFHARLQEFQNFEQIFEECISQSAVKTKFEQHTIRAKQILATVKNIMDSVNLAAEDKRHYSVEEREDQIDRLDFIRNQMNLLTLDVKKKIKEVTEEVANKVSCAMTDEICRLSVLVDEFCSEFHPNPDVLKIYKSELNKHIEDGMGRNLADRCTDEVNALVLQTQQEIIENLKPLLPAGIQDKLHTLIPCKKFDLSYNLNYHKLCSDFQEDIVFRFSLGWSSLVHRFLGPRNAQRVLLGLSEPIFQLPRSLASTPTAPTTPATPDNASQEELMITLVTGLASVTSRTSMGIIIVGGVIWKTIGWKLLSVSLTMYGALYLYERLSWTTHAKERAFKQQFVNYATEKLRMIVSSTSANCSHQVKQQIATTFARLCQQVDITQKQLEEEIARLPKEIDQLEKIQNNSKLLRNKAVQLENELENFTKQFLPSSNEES

[3] = biological target: T1, endogenous MFN2 (human (endogenous in HEK293T)); experiment: as above

Measured: binding

endogenous REEP5 (from UniProt Q00765 1-189)
binds: [1] | [2] | [3]
